In PMC7432598:
Results are given in words; binding and its absence hold for the method and conditions named. Binding seen in cells or lysates may run through a third protein. Some results given as binding are weak or reduced against the parent protein; the word gives no strength.

Sequences of proteins named here, by UniProt entry; tags and fusion partners are left off. Residues count along the entry.
UniProt P16092, residues 22-822: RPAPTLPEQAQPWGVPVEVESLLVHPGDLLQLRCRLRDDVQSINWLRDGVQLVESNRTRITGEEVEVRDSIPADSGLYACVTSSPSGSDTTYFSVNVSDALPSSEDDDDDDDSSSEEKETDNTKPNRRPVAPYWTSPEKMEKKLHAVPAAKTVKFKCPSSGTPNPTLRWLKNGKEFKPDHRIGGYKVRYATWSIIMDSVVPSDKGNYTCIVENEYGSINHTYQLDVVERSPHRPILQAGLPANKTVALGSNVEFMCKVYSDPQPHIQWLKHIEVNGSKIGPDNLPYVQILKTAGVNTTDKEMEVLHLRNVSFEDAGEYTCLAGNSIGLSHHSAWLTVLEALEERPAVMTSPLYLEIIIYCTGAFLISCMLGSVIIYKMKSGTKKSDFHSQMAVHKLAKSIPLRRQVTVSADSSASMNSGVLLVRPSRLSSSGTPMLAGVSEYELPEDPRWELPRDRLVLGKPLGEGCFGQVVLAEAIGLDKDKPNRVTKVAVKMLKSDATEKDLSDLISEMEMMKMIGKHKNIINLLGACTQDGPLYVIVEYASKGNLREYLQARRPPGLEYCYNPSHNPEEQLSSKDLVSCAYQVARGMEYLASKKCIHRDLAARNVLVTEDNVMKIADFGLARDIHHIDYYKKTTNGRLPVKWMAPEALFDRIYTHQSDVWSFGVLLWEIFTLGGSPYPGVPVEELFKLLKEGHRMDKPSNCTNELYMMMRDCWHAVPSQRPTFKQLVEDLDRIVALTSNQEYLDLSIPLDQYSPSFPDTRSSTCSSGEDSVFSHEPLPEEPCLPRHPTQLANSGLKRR
UniProt Q03142, residues 17-799: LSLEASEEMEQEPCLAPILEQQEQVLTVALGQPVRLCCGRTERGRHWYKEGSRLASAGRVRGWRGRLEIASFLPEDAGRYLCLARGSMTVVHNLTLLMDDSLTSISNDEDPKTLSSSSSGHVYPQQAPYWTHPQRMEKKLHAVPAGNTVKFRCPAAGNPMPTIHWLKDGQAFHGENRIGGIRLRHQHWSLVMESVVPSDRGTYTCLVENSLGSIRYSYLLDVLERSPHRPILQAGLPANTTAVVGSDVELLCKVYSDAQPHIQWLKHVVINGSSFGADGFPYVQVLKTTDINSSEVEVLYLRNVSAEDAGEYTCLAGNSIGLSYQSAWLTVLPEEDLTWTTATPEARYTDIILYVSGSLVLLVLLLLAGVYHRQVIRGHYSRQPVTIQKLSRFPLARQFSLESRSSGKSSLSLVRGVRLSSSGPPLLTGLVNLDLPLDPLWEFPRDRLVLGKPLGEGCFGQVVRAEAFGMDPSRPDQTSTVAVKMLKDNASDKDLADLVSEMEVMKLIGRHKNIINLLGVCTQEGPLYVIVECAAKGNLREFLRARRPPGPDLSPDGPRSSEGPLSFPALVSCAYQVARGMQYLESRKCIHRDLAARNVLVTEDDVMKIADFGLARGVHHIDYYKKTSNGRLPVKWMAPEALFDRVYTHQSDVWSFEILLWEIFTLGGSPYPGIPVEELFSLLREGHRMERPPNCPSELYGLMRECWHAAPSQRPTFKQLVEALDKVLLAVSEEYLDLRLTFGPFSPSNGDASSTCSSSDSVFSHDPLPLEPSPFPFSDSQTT
UniProt P09055, residues 21-798: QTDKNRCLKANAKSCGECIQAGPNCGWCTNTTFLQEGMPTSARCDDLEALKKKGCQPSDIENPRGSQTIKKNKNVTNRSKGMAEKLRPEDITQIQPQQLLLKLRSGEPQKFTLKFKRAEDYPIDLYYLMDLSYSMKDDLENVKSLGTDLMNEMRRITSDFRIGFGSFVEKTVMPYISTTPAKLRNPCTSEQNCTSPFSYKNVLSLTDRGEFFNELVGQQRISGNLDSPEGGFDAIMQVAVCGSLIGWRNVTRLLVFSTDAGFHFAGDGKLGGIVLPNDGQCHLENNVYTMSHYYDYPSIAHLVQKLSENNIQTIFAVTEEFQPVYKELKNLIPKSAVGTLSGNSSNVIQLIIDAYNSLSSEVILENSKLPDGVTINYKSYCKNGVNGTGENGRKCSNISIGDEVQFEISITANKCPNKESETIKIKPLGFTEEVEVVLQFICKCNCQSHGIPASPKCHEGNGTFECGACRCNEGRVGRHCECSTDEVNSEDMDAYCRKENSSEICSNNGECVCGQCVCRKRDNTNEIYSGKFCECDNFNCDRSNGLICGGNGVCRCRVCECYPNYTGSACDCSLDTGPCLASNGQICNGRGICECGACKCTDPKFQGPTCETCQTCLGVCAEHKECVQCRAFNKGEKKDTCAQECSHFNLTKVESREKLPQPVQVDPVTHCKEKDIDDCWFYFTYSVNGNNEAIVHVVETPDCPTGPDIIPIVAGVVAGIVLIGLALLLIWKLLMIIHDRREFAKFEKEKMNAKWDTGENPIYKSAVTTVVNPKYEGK

Legend:
[1] = molecular target: T1, Cdon (mouse (endogenous in C2C12)) (UniProt Q32MD9); assay: co-IP; endogenous proteins in C2C12 cell extracts; immunoprecipitation with control IgG or Cdon antibodies overnight at 4°C, protein A- or G-agarose beads, western blotting for FGFR1 and FGFR4
T1 sequence: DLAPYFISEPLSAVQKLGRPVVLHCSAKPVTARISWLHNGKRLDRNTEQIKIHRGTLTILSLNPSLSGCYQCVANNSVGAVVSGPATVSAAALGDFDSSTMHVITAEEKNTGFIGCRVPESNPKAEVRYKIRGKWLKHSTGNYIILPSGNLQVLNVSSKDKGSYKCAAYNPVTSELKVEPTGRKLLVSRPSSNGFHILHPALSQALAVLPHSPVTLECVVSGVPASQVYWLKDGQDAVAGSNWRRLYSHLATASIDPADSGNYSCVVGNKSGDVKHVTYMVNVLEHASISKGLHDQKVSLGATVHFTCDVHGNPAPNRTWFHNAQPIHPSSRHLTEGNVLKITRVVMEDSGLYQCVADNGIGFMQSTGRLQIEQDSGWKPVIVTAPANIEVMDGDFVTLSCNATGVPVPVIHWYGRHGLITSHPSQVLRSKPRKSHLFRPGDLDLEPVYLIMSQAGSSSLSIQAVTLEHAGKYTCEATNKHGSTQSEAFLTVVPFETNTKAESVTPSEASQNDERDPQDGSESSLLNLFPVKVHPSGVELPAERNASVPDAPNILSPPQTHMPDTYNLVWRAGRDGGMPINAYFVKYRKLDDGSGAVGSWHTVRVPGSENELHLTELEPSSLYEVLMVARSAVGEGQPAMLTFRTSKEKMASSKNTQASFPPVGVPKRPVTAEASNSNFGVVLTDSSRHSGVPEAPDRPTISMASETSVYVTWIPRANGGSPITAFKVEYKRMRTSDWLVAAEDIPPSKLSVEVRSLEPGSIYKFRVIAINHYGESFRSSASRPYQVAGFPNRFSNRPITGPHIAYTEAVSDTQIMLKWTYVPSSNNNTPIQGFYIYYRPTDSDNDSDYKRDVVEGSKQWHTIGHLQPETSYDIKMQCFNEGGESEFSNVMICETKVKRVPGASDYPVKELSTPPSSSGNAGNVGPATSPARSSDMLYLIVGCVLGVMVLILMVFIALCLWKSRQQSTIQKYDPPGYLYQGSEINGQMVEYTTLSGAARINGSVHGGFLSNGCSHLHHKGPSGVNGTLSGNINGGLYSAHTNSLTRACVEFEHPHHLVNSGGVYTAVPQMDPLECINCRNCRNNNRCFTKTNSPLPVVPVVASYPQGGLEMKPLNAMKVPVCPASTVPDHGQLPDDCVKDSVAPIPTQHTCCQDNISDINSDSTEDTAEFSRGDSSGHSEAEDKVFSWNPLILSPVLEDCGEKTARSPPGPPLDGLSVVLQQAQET

[2] = molecular target: T2, Cdon (overexpressed in 293T cells) (UniProt Q32MD9); assay: co-IP; lysates of 293T cells transfected with control, Itgb1 and/or Cdon vectors; immunoprecipitation with Cdon antibodies and immunoblotting
T2 sequence: T1 sequence

Row | Substance | binding [1] | binding [2]
1 | FGFR1 (from UniProt P16092 22-822) (receptor) | binds | –
2 | FGFR4 (from UniProt Q03142 17-799) (receptor) | binds | –
3 | Itgb1 (overexpressed in 293T cells) (from UniProt P09055 21-798) (receptor) | – | no binding
